Measurements from article PMC10121161.
Results are given in words; binding and its absence hold for the method and conditions named. Some binding calls cover weakened binding; strength is not graded here. Tags and fused reporters may be left off the sequences shown.

Sequences of proteins named here, by UniProt entry; tags and fusion partners are left off.
UniProt Q09065: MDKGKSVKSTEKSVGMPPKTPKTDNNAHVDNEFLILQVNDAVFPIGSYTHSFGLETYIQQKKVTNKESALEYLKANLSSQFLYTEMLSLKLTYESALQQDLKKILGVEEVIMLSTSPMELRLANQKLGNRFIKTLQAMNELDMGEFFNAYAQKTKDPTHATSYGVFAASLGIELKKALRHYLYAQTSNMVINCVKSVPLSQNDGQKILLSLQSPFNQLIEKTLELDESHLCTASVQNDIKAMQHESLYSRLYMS

Biological target: T1, HpUreDstr (HpUreD with C-terminal Strep-tag II), wild type, from pHpUreGFDstr (Helicobacter pylori) (UniProt Q09067)
T1 sequence: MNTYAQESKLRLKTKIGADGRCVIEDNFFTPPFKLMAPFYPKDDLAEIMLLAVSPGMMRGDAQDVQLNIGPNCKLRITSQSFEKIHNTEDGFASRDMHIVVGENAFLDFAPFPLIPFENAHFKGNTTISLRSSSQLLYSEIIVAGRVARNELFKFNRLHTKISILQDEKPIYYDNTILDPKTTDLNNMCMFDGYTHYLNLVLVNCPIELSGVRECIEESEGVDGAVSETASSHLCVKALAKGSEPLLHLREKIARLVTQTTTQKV
Assay: co-purification (Strep-Tactin affinity chromatography); HpUreDstr coexpressed with HpUreF and HpUreG in E. coli; lysate with 0.5 mM GDP and 1 mM MgSO4 loaded on Strep-Tactin XT resin; 50 mM Hepes, 200 mM NaCl, 1 mM TCEP-HCl (pH 7.5); eluted with 50 mM D-biotin

Substance: HpUreF, wild type, from pHpUreGFDstr (from UniProt Q09065 1-254)
- binding: binds
